This note sets out measurements from PubChem BioAssay AID1508600 (Functional Genomics Laboratory (NCATS/FGL), 2020).

The campaign covered roughly 53,000 sequences. About 3,700 (7%) were called active.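 Rule for the calls: active = gene knockdowns whose robust z-score for IL-1 alpha signal is at least 2 or at most -2, so actives lie on both sides; inactive = the rest.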 The list shows a part of the results.

The nature of this assay: Components of the Cytosolic LPS Sensing Pathway: Gene Identification via Genome-wide siRNA Screen.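 Note: robust z of the log signal after scaling to non-targeting control siRNA wells of the plate.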 The following applies: RAW264.7 macrophages, IL-1a HTRF, actives lie on both sides, screened at 100 nM (by protocol), cells primed 5 h with Pam3CSK4 first. The method in brief: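 Mouse macrophage line RAW264.7 is transfected with siRNA (100 nM final), grown 48h, primed with TLR ligand Pam3CSK4 5 h and given intracellular LipidA 24 h. IL-1a in supernatant is read by HTRF and viability by luminescence.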
Background: In TR-FRET formats the signal depends on donor and acceptor labels being close together.
Regarding GCCCAAGGUAGAUUCCAGCTT against Atg2b, the z-score is inactive: -0.0844.

On to GCUGGACGGUAGAAGAAUCTT against Tra2a, for which the z-score is inactive: 0.245.

On to UAGAAGAUGCAACCUUGCUTT against Adam34, for which the z-score is inactive: 0.188.

In the case of GGUACUGAUCAGCAAGACGTT against Lca5l, the z-score is inactive: 0.821.

For the sequence GGUUCUUUAAUAGAACAUGTT against Tyrp1, the z-score was inactive: 1.08.

As to CGAGUCUAUAAACCUCAAATT against Lce3f, the z-score was inactive: 1.51.

Regarding GCGUGGAAAUCAACUUACATT against Ccin, the z-score is inactive: 1.41.

Turning to GCCCAAGUCCAAAGUGUUGTT against Fbll1, the z-score is inactive: 1.12.

With GCAUCGUUUUGAUCGAAUATT against Tdp2, the z-score was inactive: 1.15.

In the case of “GCAAGAGGGUUACAGUUAGTT against 2610001J05Rik”, the z-score was inactive: -0.0805.

Consider GGAAUUCCCAUUGGAAGAATT against Vmn1r232, for which the z-score was inactive: 0.0956.

On to GGGUGAAUUUCCACCUUAUTT against Sgce, for which the z-score was inactive: -0.521.

In the case of GGAGUACGAAUUCCUCACUTT against Arhgdib, the z-score was inactive: -0.0475.

Consider CCCGCUGUUUACACUAACGTT against Klk9, for which the z-score was inactive: -0.738.

GCUGAAAAGUAGAGUUAAATT against Pcm1: the z-score was inactive: 0.883.

As to GGCCUUGAAAUCGUUUUUUTT against Tceal8, the z-score is inactive: 0.534.

Consider GGUGAUGAUGAUGUCUUUGTT against B3gnt7, for which the z-score is inactive: 1.93.

On to GGAAUGUGUGAGUGAAUUUTT against Nfyb, for which the z-score is inactive: -0.452.

Consider GGGUUUACAAACUACACAUTT against Six3os1, for which the z-score is inactive: 0.957.

With GGGCAAGUACCCAAUAAGATT against Cyp27a1, the z-score was inactive: 0.794.

Take GGGCAAGUACAAGCGUAACTT against Jph4: the z-score is inactive: -1.5.

On to GGGCUAAGGCGAAAAGACUTT against Msx2, for which the z-score was active: 3.24.

Take CGAUCAUUAUGAACAGAUUTT against Olfr48: the z-score is inactive: -0.174.

Regarding GCCUGUAAGAUCACUAAAATT against Atxn7l1, the z-score was inactive: -0.0813.

With GGCUUCAAUGCCAAUCGGATT against Kcnh3, the z-score was inactive: 0.00875.

Turning to GGGCAUUGGUUCUCAGUGUTT against Gpr157, the z-score is inactive: -1.44.

With CGAUUUCGCCAUCUUUGGATT against Tpk1, the z-score was inactive: 1.31.

Turning to CCACUGUCCUGAUUUCUUATT against Olfr1037, the z-score was inactive: -0.476.

As for GCUAUAGCCCUAGAGCUAUTT against Psmb4, the z-score was inactive: -0.894.

Take AUGUCAGCGGCCCUAGAUGTT against Adam34l: the z-score is active: -2.09.

In the case of CGACAAGUACGAGAACGGUTT against Tcf21, the z-score is inactive: 1.89.

Consider GGAUGUCCAUCAUAUUAAGTT against Tex19.2, for which the z-score is inactive: -1.24.

GCAAUGAGGAGUAUAUGUATT against Rfx5: the z-score is active: 2.89.

On to CCGGCUUUAUAAUUAGGAUTT against Olfr948, for which the z-score is inactive: -0.0601.

Take GGACUAGCACUUUAUGUUUTT against Strm: the z-score was inactive: 0.531.

On to CCUAUGAACUCUUAACCAATT against Pgd, for which the z-score was inactive: -0.192.

For GGCAAACGAAACACUAGCATT against Cacna1d, the z-score is active: 4.94.

Consider GCUCCUUGGGCGAUUUCAGTT against Aggf1, for which the z-score is inactive: 0.265.

For the sequence “GGAUUUUCUACUUAGCAACTT against 9630013D21Rik”, the z-score was inactive: 0.808.

As to GCACGGAAGACUUACGAACTT against Cstf3, the z-score is inactive: 0.439.

GGAAGGAGAAGAAAACAUATT against Gtf3c6: the z-score was active: -2.13.

In the case of GGAACACCUCUGGAAAUCUTT against Pex12, the z-score was inactive: -0.801.

In the case of CUAGUUGACUUCUGGUACUTT against Olfr915, the z-score was inactive: 0.889.

For CCUGGUGCGUUCAUUCCUGTT against Lpcat1, the z-score was inactive: -0.564.

On to GGGACUUUUUUAGGUGAAUTT against Npl, for which the z-score was inactive: -0.591.

In the case of GGCUACCCAUGCUACCUACTT against Banf2, the z-score is inactive: -0.0574.

GGUUAAAAUUUGGUUUCAGTT against Cdx2: the z-score is inactive: 1.49.

With “UUUCAACUGAAUUGCACUUTT against 4930471G03Rik”, the z-score is inactive: 1.19.

Take GCCACUAAGAUUGUCAUCGTT against Tacr3: the z-score was inactive: -1.09.

Consider GCUACUAAUUGAUUAGUUGTT against Tmprss12, for which the z-score was inactive: 0.936.

For the sequence CCGUGGUACCAUCAAUGACTT against Aarsd1, the z-score is inactive: 0.142.

Turning to GCUCAAUGACAGACUAGCCTT against Dusp3, the z-score is inactive: -0.72.

With GCACAGACAUCUUUUGCCATT against Man2a2, the z-score was inactive: -1.

For GGAUGUGUACAAUCGUACCTT against Gltpd2, the z-score is inactive: 1.23.

As to CGGGAAAGUACUGUAGAAATT against Cdc42se1, the z-score is inactive: 0.197.

For the sequence GCACGAACAAAAUGAAUACTT against Insl6, the z-score was inactive: 1.18.

As to GGAGUACUUCCCUGUGAUCTT against Magea6, the z-score was inactive: 0.454.

On to GGUGCACAGAUGUCUUACCTT against Sec24d, for which the z-score is inactive: -0.945.

For the sequence GGUAGUUAAUCAGUGUAAATT against Rps6kb1, the z-score was inactive: 1.1.

Turning to CGGACACUUUCACCUUCAATT against C77080, the z-score was inactive: -1.25.

In the case of GGCUUUUUAGGAAACUAUATT against Olfr361, the z-score is active: 2.12.

Turning to CGCCUUCAUAAUGUAGUUGTT against Defb37, the z-score was inactive: 0.601.

For GGCAGUGUUUUGUCAAGUUTT against Fgd4, the z-score was inactive: 1.21.

For the sequence GCAUGUGCCUGACUGGGUUTT against Selenoi, the z-score was inactive: 0.604.

As for CCUGGCAGAACUUUGAUAGTT against Fars2, the z-score was inactive: 0.883.

For the sequence GCGAGCUAAACAUUCUGAATT against Mia2, the z-score was inactive: -1.71.

Regarding GCCGAGAAACAUCCCAAACTT against Rnf114, the z-score was inactive: -0.964.

Turning to GGCCAAAGAGAUAUAUAUATT against Rassf3, the z-score was inactive: -0.307.

GGUGGACUCAAAAUUAGAATT against Ttc39b: the z-score is inactive: 0.273.

For GGAAUACAGAUUUUUCAGATT against Frmd6, the z-score was inactive: -1.15.

For GGCAAACCUGAAUUUACGGTT against Pcdha9, the z-score is inactive: 0.124.

Regarding GGCUCCAGUAAUUGAUAAATT against Sycp3, the z-score is inactive: -0.0955.

Regarding GGCUAAUAAAGUUGAGAAATT against Mcrip2, the z-score is inactive: -0.852.

CCCUUUGUUAUACUCUAAATT against Tra2a: the z-score was inactive: 0.707.

Regarding “GAUUUGCUACUCCUCUACGTT against Olfr1273-ps”, the z-score is inactive: 1.42.

Turning to CCAUCAUUCUCUGGUCAAATT against Sdha, the z-score is inactive: 1.1.

For the sequence GGUCUGAUUUUCAACACCUTT against Aqp6, the z-score is inactive: -1.14.

As to GCCAGUCAUUAUAGUUAACTT against Slc47a1, the z-score was inactive: 1.57.

With GGGAUAGUUACCUAAGACATT against Adarb2, the z-score was inactive: 0.593.

For the sequence CGGAACACACCAAGAAUCUTT against Pick1, the z-score was inactive: 0.447.

Take CCGCUUUCGGCAAGUAUGGTT against Rbmxl2: the z-score is inactive: 1.64.

For GCCAGUAACUCAACAGAAGTT against Umod, the z-score is inactive: -0.269.

On to CCAAGCUAUUGGCCCUGACTT against Defb38, for which the z-score is inactive: 0.251.

Take GCUAUAAUGCUGGAGUCAATT against P3h2: the z-score is inactive: 0.27.

As to GGUUGUUUUGCAUUUGUGUTT against Slc25a14, the z-score is inactive: 0.158.

On to GGAGGUCCAAGAGAAAUGUTT against Hacd4, for which the z-score is inactive: 0.0113.

In the case of CCAUAGAGCUAAGUUAUUGTT against Mlec, the z-score is inactive: -0.0865.

Regarding GGUAUAGCGGUGCAUGUCATT against Bmp8a, the z-score is inactive: -0.823.

Regarding CCCAUAGUGAAUCAUAGUGTT against Olfr225, the z-score is inactive: 0.451.

With GGAUGUCCACAUCAAGGCUTT against Dscam, the z-score is inactive: -0.034.

Take CCCAAGCAAAUGGUGUAAUTT against Rab5a: the z-score is inactive: 0.412.

With GGUGCAAGUGCAGUUUCAATT against Fxyd6, the z-score was active: 2.38.

Take GGACAAACUAGCAACCACUTT against Map7: the z-score is inactive: -0.309.

For the sequence GGAGCUUCAAGGUCUGUCGTT against Tmc6, the z-score is active: -2.65.

Take CCUUGUAGUAAUAGGGAUGTT against Olfr116: the z-score was inactive: 0.681.

With CGCAGGAUCUUAAAGAGCATT against Naga, the z-score is inactive: 0.983.

With GCUCGUCAGCAGUAAGAAUTT against Nmbr, the z-score was inactive: 0.295.

Turning to GCUCAAACGAAAUGAUUCATT against Gys2, the z-score is active: 2.01.

Regarding GGCCUGUCCAAAGAAGUGATT against E2f3, the z-score is active: 2.2.

Take GGCACGAUGGUUCAUCCUUTT against Plek2: the z-score is active: -2.01.

As to GCAUUAACUGCAUUGAGCATT against Ccn3, the z-score is inactive: -1.19.

Take GCGGGACUGGAUAAUAAACTT against Orc2: the z-score is inactive: 0.201.

GCCUGAGCUUUACAAGCAGTT against Syt6: the z-score was inactive: -0.661.

For the sequence CGGAACGAUCCGGAACAUCTT against Idh2, the z-score was inactive: 0.627.

For the sequence CGUAUUUAUUGACUCACUATT against Klhl17, the z-score was inactive: 0.0456.

For AUGACUAACAUUUUCCACCTT against Tpbpb, the z-score was inactive: 0.169.

GGAUUCUGAUCUUUGGUGUTT against Tmem130: the z-score is inactive: 0.482.
